For five targets, NP40-soluble protein abundance results are on record in the supplement of paper PMC6411743.

Sequences of proteins named here, by UniProt entry; tags and fusion partners are left off. A change or cut given only in a name is not applied to a line headed by its entry.
UniProt Q9BW91: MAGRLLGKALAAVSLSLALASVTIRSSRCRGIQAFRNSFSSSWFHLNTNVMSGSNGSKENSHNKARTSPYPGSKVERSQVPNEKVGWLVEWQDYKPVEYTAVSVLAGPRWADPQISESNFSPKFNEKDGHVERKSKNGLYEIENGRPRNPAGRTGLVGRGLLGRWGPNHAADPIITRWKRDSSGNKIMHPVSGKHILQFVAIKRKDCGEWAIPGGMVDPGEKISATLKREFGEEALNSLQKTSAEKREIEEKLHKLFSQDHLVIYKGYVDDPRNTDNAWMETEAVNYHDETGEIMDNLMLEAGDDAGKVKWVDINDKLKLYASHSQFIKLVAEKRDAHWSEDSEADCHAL
UniProt Q9BT22: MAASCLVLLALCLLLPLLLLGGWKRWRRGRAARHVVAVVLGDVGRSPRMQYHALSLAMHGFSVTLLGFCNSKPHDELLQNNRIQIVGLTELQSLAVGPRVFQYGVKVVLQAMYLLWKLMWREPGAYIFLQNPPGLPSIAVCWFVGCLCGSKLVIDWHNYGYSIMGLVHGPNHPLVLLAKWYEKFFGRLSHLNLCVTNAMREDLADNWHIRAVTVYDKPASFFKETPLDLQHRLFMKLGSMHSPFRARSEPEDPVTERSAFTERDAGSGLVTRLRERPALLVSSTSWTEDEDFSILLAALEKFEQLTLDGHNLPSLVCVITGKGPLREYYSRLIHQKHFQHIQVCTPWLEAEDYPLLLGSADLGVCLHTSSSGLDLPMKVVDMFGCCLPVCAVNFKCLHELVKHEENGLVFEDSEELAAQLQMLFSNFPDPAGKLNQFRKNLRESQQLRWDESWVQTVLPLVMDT
UniProt Q99832: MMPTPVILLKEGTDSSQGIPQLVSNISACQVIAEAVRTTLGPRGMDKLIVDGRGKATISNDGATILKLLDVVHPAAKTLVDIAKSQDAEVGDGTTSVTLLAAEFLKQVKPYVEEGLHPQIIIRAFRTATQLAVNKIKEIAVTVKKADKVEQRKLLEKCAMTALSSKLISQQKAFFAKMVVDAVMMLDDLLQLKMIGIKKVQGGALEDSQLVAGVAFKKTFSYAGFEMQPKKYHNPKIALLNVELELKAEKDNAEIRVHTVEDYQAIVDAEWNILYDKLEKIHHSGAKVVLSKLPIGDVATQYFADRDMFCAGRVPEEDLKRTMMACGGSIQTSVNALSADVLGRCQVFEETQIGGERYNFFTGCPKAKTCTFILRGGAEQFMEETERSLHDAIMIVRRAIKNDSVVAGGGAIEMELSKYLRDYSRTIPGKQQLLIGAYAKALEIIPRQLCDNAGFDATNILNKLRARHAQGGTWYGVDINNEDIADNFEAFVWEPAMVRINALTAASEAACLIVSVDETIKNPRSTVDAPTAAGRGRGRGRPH
UniProt Q9BXK5, whole entry: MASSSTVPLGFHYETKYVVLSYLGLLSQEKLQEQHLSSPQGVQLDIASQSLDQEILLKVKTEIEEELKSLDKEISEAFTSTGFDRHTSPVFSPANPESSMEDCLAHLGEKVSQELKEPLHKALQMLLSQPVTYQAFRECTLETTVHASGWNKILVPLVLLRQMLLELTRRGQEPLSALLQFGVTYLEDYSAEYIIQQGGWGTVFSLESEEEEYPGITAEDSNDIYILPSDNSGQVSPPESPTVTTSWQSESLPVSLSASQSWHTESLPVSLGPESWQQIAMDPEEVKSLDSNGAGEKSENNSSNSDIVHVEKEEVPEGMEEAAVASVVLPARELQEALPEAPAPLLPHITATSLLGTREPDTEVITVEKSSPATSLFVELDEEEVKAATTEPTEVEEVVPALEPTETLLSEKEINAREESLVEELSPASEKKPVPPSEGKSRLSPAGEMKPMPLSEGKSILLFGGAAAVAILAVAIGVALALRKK

Compound in this test: Nc1nc2c(ncn2[C@@H]2O[C@H](COP(=O)(O)OP(=O)(O)OP(=O)(O)O)[C@@H](O)[C@H]2O)c(=O)[nH]1 [guanosine triphosphate]
Kind of test: NP40-soluble protein abundance relative to vehicle (solubility fold change) (ratio); higher = more soluble protein in presence of GTP. The protocol: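 Solubility proteome profiling in Jurkat crude lysate. Lysate was treated with Mg-GTP (0.1-10 mM) for 10 min at room temperature and 3 min at 37 °C, then solubilised with 0.8% NP40 and benzonase, followed by ultracentrifugation. Proteins were quantified by TMT10 LC-MS/MS; the value is the NP40-soluble abundance relative to the NP40-processed vehicle, from 3 independent experiments.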

± gives the standard deviation of the averaged measurements. The list shows a part of the results.

Consider UniProt Q9BW91 and related entries, for which the NP40-soluble protein abundance runs as follows: (concentration: 0.1mM) 0.985 ± 0.062; (concentration: 0.5mM) 0.97 ± 0.09; (concentration: 1mM) 0.995 ± 0.061; (concentration: 2mM) 0.95 ± 0.099; (concentration: 4mM) 0.982 ± 0.1; (concentration: 6mM) 0.974 ± 0.083. Further, the NP40-soluble protein abundance by setting is: (concentration: 8mM) 0.993 ± 0.043; (concentration: 10mM) 0.956 ± 0.05.
Consider UniProt Q9BY12-2, for which the NP40-soluble protein abundance is, setting by setting: (concentration: 0.1mM) 1.16 ± 0.15; (concentration: 0.5mM) 1.12 ± 0.22; (concentration: 1mM) 1.14 ± 0.11; (concentration: 2mM) 1.1 ± 0.12; (concentration: 4mM) 1.04 ± 0.22; (concentration: 6mM) 1.07 ± 0.2. In addition, the NP40-soluble protein abundance runs as follows: (concentration: 8mM) 1.2 ± 0.19; (concentration: 10mM) 1.08 ± 0.14.
Turning to UniProt Q9BT22 and related entries, the NP40-soluble protein abundance stood at 1.1 ± 0.035 (concentration: 0.1mM); 1.1 ± 0.017 (concentration: 0.5mM); 1.01 ± 0.016 (concentration: 1mM); 1.03 ± 0.031 (concentration: 2mM); 0.978 ± 0.062 (concentration: 4mM); 0.984 ± 0.036 (concentration: 6mM). For the same target, the NP40-soluble protein abundance (concentration: 8mM) stood at 0.999 ± 0.035 and the NP40-soluble protein abundance (concentration: 10mM) was 0.968 ± 0.046.
Consider CCT7 (UniProt Q99832), for which the NP40-soluble protein abundance is 1.04 ± 0.034 (concentration: 0.1mM); 1.11 ± 0.12 (concentration: 0.5mM); 1.09 ± 0.13 (concentration: 1mM); 1.09 ± 0.21 (concentration: 2mM); 1.1 ± 0.21 (concentration: 4mM); 1.08 ± 0.23 (concentration: 6mM). For the same target, the NP40-soluble protein abundance is, setting by setting: (concentration: 8mM) 1.06 ± 0.19; (concentration: 10mM) 0.998 ± 0.2.
BCL2L13 (UniProt Q9BXK5): the NP40-soluble protein abundance by setting is: (concentration: 0.1mM) 0.942 ± 0.12; (concentration: 0.5mM) 0.941 ± 0.086; (concentration: 1mM) 0.951 ± 0.14; (concentration: 2mM) 0.916 ± 0.15; (concentration: 4mM) 0.928 ± 0.15; (concentration: 6mM) 0.899 ± 0.12. Also, the NP40-soluble protein abundance by setting is: (concentration: 8mM) 0.938 ± 0.13; (concentration: 10mM) 0.979 ± 0.12.
